No constants are given. Whether binding was seen depends on the method and setting. Where a sequence is shown, tags or fusion partners need not be part of it.
Target: T1, mouse SAA3 fused to the GAL4 DNA-binding domain (mouse) (UniProt P04918)
T1 sequence: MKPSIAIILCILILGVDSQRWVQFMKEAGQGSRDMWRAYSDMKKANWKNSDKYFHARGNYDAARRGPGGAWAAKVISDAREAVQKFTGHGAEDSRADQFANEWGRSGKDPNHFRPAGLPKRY
Test: two-hybrid; confirmation and deletion assays: baits fused to the GAL4 DNA-binding domain, preys fused to the GAL4-activation domain (pGADT7); growth in SD-4 (-Leu, -Trp, -His, -Ade) in a series of dilutions

Protein sequences, listed by entry. Tags and fused reporters are not part of them. Residues count along the entry.
UniProt Q9EQ09, residues 55-363: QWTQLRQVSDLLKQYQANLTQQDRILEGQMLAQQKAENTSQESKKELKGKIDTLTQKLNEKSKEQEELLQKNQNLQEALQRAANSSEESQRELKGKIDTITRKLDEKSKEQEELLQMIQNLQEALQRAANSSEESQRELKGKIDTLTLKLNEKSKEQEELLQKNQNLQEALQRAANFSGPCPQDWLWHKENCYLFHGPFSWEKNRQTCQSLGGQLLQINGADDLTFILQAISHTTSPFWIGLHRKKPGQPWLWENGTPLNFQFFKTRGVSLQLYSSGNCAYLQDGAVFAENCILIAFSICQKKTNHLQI

mouse LOX-1 extracellular domain fused to the GAL4-activation domain (from UniProt Q9EQ09 55-363) (domain or fragment)
binding: no binding

Source: article PMC4349446
